The source of these data is patent US9844584 (dated 2017).

A short description of this data set: general procedure: Fmoc solid-phase peptide synthesis; NH2-Lys(Boc)-2-chloro-Trityl Resin; NH2-Ala-2-chloro-Trityl Resin; NH2-Arg(Pbf)-2-chloro-Trityl Resin; HBTU/HOBt/NMM. Particulars: whole synthesis, high-performance liquid chromatography.

Strings that start with PEPTIDE1 are HELM notation: dots part the residues, brackets hold end groups and non-standard residues.

Regarding “PEPTIDE1{E.A.R.P.A.L.L.T.S.R.L.R.F.I.P.K}$$$$V2.0”, the “final purity (method not given)” value was 97.3%.
